Results deposited as PubChem BioAssay AID1259308 (NCATS, 2017)

- Assay: 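Candidate targets for better recombinant protein yield in mammalian cells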 (primary screen)
- Cells: human HEK293 embryonic kidney cells stably expressing firefly luciferase (HEK-CMV-Luc2-Hygro)
- Reagents: single siRNA against human genes, 0.8 pmol siRNA per well
- Time to read-out: 72 h
- Measurement: 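Luciferase light (ONE-Glo) measured on one replicate plate set and viability (CellTiter-Glo) on the other, scaled to a negative control siRNA, with robust z-scores and luciferase per cell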
- Reading the numbers: total luciferase, z-score and total luciferase, % of control: higher = more reporter protein produced
- Hit rule: 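Active when the median/MAD z-score for overall luciferase is greater than 3; a gene was taken forward for validation with new siRNAs if at least two of its three siRNAs passed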
- Meaning of the calls: active = raised luciferase; inactive = no rise
The whole screen tested about 59,000 reagents; this is a random part of them. About 1,510 of all reagents (2.6%) count as active. 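Calls use total luciferase alone and ignore viability, so some active siRNAs may act by altering cell number.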 The numbers tell different reagents against one gene apart. Further read-outs or replicates are left out here.

Against WDR44 (WD repeat domain 44) #1, the entry reads total luciferase, z-score -0.124; total luciferase, % of control 79.4; inactive.
WDR44 (WD repeat domain 44) #2 showed total luciferase, z-score 1.21; total luciferase, % of control 106; inactive.
Against WDR44 (WD repeat domain 44) #3 the deposit lists total luciferase, z-score 0.411; total luciferase, % of control 90.1; inactive.
Against MKRN3 (makorin ring finger protein 3) #1, the entry reads total luciferase, z-score 1.34; total luciferase, % of control 108; inactive.
With knock-down of MKRN3 (makorin ring finger protein 3) #2, the record shows total luciferase, z-score -0.717; total luciferase, % of control 67.6; inactive.
MKRN3 (makorin ring finger protein 3) #3 gave total luciferase, z-score -0.101; total luciferase, % of control 79.9; inactive.
Depletion of RPL22 (ribosomal protein L22) #1 gave: total luciferase, z-score -0.373; total luciferase, % of control 74.5; inactive.
For RPL22 (ribosomal protein L22) #2 the deposit lists total luciferase, z-score 1.48; total luciferase, % of control 111; inactive.
After knock-down of RPL22 (ribosomal protein L22) #3 the results were total luciferase, z-score -0.871; total luciferase, % of control 64.6; inactive.
LOC729995 (retired record) #1 gave total luciferase, z-score 1.42; total luciferase, % of control 110; inactive.
LOC729995 (retired record) #2 scored total luciferase, z-score 3.01; total luciferase, % of control 142; active.
Depletion of LOC729995 (retired record) #3 came out at: total luciferase, z-score 2.41; total luciferase, % of control 130; inactive.
ACVR1B (activin A receptor type 1B) #1 showed total luciferase, z-score 1.25; total luciferase, % of control 107; inactive.
ACVR1B (activin A receptor type 1B) #2 scored total luciferase, z-score -0.259; total luciferase, % of control 76.7; inactive.
Against ACVR1B (activin A receptor type 1B) #3 the deposit lists total luciferase, z-score 0.572; total luciferase, % of control 93.3; inactive.
Against NAA38 (N-alpha-acetyltransferase 38, NatC auxiliary subunit) #1, the values are total luciferase, z-score 2.42; total luciferase, % of control 130; inactive.
NAA38 (N-alpha-acetyltransferase 38, NatC auxiliary subunit) #2 scored total luciferase, z-score -0.221; total luciferase, % of control 77.5; inactive.
NAA38 (N-alpha-acetyltransferase 38, NatC auxiliary subunit) #3 showed total luciferase, z-score -1.09; total luciferase, % of control 60.3; inactive.
For SH3BP4 (SH3 domain binding protein 4) #1, the entry reads total luciferase, z-score 0.81; total luciferase, % of control 98; inactive.
Knock-down of SH3BP4 (SH3 domain binding protein 4) #2 gave: total luciferase, z-score -0.0509; total luciferase, % of control 80.9; inactive.
With knock-down of SH3BP4 (SH3 domain binding protein 4) #3, the screen gave total luciferase, z-score 1.07; total luciferase, % of control 103; inactive.
DNAJB4 (DnaJ heat shock protein family (Hsp40) member B4) #1 gave total luciferase, z-score 0.573; total luciferase, % of control 93.3; inactive.
With knock-down of DNAJB4 (DnaJ heat shock protein family (Hsp40) member B4) #2, the record shows total luciferase, z-score -0.634; total luciferase, % of control 69.3; inactive.
Knock-down of DNAJB4 (DnaJ heat shock protein family (Hsp40) member B4) #3 came out at: total luciferase, z-score 4.6; total luciferase, % of control 173; active.
Knock-down of GNAT1 (G protein subunit alpha transducin 1) #1 gave: total luciferase, z-score -0.727; total luciferase, % of control 67.4; inactive.
GNAT1 (G protein subunit alpha transducin 1) #2 scored total luciferase, z-score 1.01; total luciferase, % of control 102; inactive.
With knock-down of GNAT1 (G protein subunit alpha transducin 1) #3 the results were total luciferase, z-score -0.00207; total luciferase, % of control 81.8; inactive.
For MRPS25 (mitochondrial ribosomal protein S25) #1, the values are total luciferase, z-score 0.694; total luciferase, % of control 95.7; inactive.
With knock-down of MRPS25 (mitochondrial ribosomal protein S25) #2 the results were total luciferase, z-score -0.674; total luciferase, % of control 68.5; inactive.
Against MRPS25 (mitochondrial ribosomal protein S25) #3, the entry reads total luciferase, z-score -0.0595; total luciferase, % of control 80.7; inactive.
DCUN1D5 (defective in cullin neddylation 1 domain containing 5) #1 scored total luciferase, z-score -0.462; total luciferase, % of control 72.7; inactive.
After knock-down of DCUN1D5 (defective in cullin neddylation 1 domain containing 5) #2 the results were total luciferase, z-score -0.142; total luciferase, % of control 79.1; inactive.
After knock-down of DCUN1D5 (defective in cullin neddylation 1 domain containing 5) #3 the results were total luciferase, z-score -1.28; total luciferase, % of control 56.5; inactive.

Only “total luciferase, z-score”, for 4 of the entries above:
WDR44 (WD repeat domain 44) #3 = 0.411
MKRN3 (makorin ring finger protein 3) #1 = 1.34
MKRN3 (makorin ring finger protein 3) #2 = -0.717
MKRN3 (makorin ring finger protein 3) #3 = -0.101
